Data as given in publication PMC8062630, “Structure and assembly of double-headed Sendai virus nucleocapsids” (Communications Biology, 2021).
Results are given in words; binding and its absence hold for the method and conditions named. Some results given as binding are weak or reduced against the parent protein; the word gives no strength.

Chains of the proteins cited; added tags and fusions are not shown.
UniProt P04858: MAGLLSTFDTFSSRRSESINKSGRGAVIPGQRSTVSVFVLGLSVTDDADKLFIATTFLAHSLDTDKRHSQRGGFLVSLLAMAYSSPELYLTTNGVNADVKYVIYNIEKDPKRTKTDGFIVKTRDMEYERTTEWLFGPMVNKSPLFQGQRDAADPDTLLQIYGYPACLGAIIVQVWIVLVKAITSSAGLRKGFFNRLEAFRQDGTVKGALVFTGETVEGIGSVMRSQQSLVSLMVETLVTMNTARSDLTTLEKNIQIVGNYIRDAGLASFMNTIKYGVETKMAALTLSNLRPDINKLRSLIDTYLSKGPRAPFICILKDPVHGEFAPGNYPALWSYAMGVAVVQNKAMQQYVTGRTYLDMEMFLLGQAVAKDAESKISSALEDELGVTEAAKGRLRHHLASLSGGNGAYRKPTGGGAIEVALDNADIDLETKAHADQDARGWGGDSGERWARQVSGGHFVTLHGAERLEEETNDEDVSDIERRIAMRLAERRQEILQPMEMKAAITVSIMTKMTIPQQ

Target: Sendai virus nucleoprotein in nucleocapsids released from wild-type SeV virions (Sendai virus) (UniProt P04858)
Assay: cryo-EM imaging of filaments; purified SeV virions lysed with 2% Triton X-100 for 6 h at 4 °C, put directly on cryo-EM grids

Substance: Sendai virus nucleoprotein in nucleocapsids released from wild-type SeV virions (from UniProt P04858 1-517)
- binding: binds
